This passage reports binding results from article doi:10.1101/755678.

No constants are given. Whether binding was seen depends on the method and setting.

For the assay, the target named is T1, N-terminally fluorescein-labelled P4 peptide (Streptococcus cristatus).
T1 sequence (peptide, fluorescein (FAM) on the N-terminus): NIFKKNVGFKK
Nature of the assay: MST.

On to “Omp40-41 complex from W83 (OmpA-like OM protein complex) (Porphyromonas gingivalis W83)”, for which the binding entry was “no binding”.
